Experimental findings from article PMC5111114 are described below.

By UniProt entry, the sequences of proteins in these tests, tags left out. Where a name states a change or a piece, a line headed by the entry shows the natural chain unless it says otherwise.
UniProt P12956: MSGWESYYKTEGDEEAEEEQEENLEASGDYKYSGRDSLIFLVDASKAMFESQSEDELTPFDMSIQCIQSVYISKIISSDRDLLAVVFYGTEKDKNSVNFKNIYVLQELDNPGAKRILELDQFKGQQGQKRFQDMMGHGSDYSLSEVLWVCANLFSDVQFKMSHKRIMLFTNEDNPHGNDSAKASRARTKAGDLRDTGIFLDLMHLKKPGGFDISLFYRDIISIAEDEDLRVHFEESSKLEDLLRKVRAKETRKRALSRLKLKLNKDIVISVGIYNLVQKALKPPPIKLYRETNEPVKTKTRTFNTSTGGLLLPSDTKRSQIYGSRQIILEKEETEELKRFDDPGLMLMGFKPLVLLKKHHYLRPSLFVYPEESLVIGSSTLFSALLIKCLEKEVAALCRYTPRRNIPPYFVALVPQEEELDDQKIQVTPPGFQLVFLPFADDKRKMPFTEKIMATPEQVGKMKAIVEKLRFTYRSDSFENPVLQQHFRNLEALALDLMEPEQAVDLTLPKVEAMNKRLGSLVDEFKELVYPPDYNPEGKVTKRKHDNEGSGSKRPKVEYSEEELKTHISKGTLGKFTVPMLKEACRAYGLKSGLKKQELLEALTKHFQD
UniProt O70126: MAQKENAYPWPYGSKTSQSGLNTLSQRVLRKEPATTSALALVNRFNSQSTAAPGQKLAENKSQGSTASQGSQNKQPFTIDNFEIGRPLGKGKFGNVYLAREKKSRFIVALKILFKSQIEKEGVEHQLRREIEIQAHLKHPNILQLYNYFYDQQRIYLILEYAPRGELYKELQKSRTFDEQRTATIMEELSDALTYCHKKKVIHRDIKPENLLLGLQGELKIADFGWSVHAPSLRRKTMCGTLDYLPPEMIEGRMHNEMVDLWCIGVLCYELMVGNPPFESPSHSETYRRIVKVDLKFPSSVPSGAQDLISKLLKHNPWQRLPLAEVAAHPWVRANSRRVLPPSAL

For the test, the target named is biotin-conjugated Ku70 S155D peptide (loop region surrounding S155, aa 145 to 163) (UniProt P12956). Nature of the test: affinity purification with mass spectrometry; biotin-conjugated Ku70 peptides (aa 145-163, S155A or S155D) incubated with MEF nuclear extracts from cells untreated or subjected to 10 Gy of IR; pulled down with streptavidin beads; factors identified by mass spectrometry; only the target purified.

Results are given in words; binding and its absence hold for the method and conditions named. In cells and extracts the contact can be indirect. These calls come from enrichment with a bait or labelling near it, and not all partners need be listed.

For the substance “Aurora B (endogenous, mouse embryonic fibroblasts) (from UniProt O70126 1-345) (enzyme)”, the binding result was “binds”.
